The test addresses STREP2-FLAG-tagged RCC1L^V1 (human) (UniProt Q96I51). The test can be described thus: co-IP; STREP2-FLAG-tagged RCC1L isoform as bait, captured on Strep-Tactin Sepharose overnight from trypsin-treated, sucrose gradient-purified HEK mitochondria lysed with 0.8% DDM; 10 washes; elution with 10 mM desthiobiotin; endogenous proteins in the elution found by immunoblot.

Amino acid sequences for entries named in this document (tags omitted). Residues count along the entry.
UniProt Q96I51, residues 38-464: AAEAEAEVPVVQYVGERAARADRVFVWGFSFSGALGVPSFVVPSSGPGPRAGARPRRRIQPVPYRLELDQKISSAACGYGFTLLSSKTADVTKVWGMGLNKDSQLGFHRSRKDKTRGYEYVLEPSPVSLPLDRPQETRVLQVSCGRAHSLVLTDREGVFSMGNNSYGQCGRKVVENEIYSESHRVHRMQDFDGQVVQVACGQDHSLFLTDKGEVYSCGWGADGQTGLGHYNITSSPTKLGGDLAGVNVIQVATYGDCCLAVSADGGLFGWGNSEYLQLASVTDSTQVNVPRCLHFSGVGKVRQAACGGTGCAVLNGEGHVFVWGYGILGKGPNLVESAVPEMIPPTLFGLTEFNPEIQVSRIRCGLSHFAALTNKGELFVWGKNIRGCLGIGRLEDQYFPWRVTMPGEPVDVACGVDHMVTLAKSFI
UniProt A4D1E9: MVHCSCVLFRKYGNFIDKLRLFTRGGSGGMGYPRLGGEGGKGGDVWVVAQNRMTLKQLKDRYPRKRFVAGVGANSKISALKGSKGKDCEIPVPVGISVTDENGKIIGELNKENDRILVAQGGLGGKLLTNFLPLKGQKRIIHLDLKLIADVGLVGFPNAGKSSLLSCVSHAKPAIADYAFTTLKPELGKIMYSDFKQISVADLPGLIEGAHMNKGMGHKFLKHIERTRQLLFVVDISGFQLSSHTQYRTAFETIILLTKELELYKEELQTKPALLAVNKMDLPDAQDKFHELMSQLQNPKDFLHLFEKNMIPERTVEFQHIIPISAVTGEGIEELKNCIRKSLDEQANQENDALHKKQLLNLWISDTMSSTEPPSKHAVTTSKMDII

The values below come from publication PMC7423155.

No constants are given. Whether binding was seen depends on the method and setting. Binding seen in cells or lysates may run through a third protein. Some entries that bind do so weakly or less than the wild type.

“GTPBP10 (from UniProt A4D1E9 1-387) (enzyme)”: the binding entry is “binds”.
